# Out of some 320,000 compounds screened, about 22,000 (6.9%) were called active. This list was built around the results that the source calls inconclusive (neither active nor inactive); the mix of calls is not that of the screen. Calls come from the whole dose curve; as a rule, active = well fitted inhibition curve with a large enough effect; inconclusive = small, poorly fitted or top-dose-only effect, or another doubt; inactive = no such curve, though single readings can be large or run the other way. Where the call is inconclusive, the potency comes from a doubtful curve fit.
# Assay: Primary qHTS for delayed death inhibitors of the malarial parasite plastid, 96 hour incubation
# Details: P. falciparum luciferase reporter growth; series mostly up to 28.7 µM
# How it was run: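 P. falciparum expressing integrated firefly luciferase grown in erythrocytes (2% hematocrit, 0.05% parasitemia final) with compounds for 96 hours at 37 C, 5% CO2. Growth inhibition read as loss of luminescence after adding luciferase detection reagent.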
# Potency is the fitted concentration of half-maximal effect.
row,Compound,Potency
1,COc1ccc(NS(=O)(=O)c2cc(NC(=O)c3cnc(C)cn3)ccc2N2CCCC2)cc1,"inconclusive: 13.1 µM [inhibitor, single point]"
2,CCC(=NC1CC1)c1c(O)n(C2CCCCC2)c(=O)[nH]c1=O,"inconclusive: 18.5 µM [inhibitor, single point]"
3,COc1cc(C2Nc3cccc4cccc(c34)N2)cc(OC)c1O,inactive
4,Cc1ccc(-c2c[n+]3c(n2-c2ccccc2)CCC3)cc1,active: 0.147 µM
5,Cc1nc2c3ccccc3nc(SCC(=O)N3CC(C)CC(C)C3)n2n1 (stereo not given),"inconclusive: 11.7 µM [inhibitor, partial curve, poor fit]"
6,COc1cc2c(cc1OC)C1O[C@](CCCCN3C(=O)c4ccccc4C3=O)(C2)Oc2c1c(=O)oc1ccccc21,"inconclusive: 2.39 µM [inhibitor, single point]"
7,CSc1cccc(NC(=O)CNC(=O)C2CCCCC2)c1,inactive
8,CC(=O)Nc1ccc(OCC(O)Cn2ccnc2)cc1 (stereo not given),inactive
9,CCC(=O)c1cc(F)c(N2CCN(C(=O)c3ccco3)CC2)cc1C,"inconclusive: 11.7 µM [inhibitor, single point]"
10,O=C(N/N=C/c1cccc([N+](=O)[O-])c1)C1COc2ccccc2O1 (stereo not given),inactive
11,CCCC1O[C@@H]2C[C@H]3[C@@H]4CCC5=CC(=O)C=C[C@]5(C)[C@H]4[C@@H](O)C[C@]3(C)[C@]2(C(=O)CO)O1 (stereo not given in full),active: 2.33 µM
12,Cc1ccc(-n2ncc(C(=O)Nc3cc(Cl)ccc3C)c2C2CCNCC2)cc1C,inactive
13,CN1c2ccccc2Oc2c(c(=O)n(C)c(=O)n2C)C1c1cccc([N+](=O)[O-])c1 (stereo not given),"inconclusive: 7.38 µM [inhibitor, partial curve, poor fit]"
14,O=C(Nc1ccc(N2CCOCC2)cc1)c1cccc(S(=O)(=O)N2CCC(Cc3ccccc3)CC2)c1,"inconclusive: 14.7 µM [inhibitor, partial curve, poor fit]"
15,Cn1cccc1/C=N/NC(N)=S,"inconclusive: 4.15 µM [inhibitor, partial curve, poor fit]"
16,COc1ccc(OCC(=O)Nc2ccc3c(c2)n(C)c(=O)n3C)cc1,"inconclusive: 13.1 µM [inhibitor, single point]"
17,Cc1cccc(NC(=O)Nc2ccc3c(c2)CCC3)c1,inactive
18,CCc1ccc(CNC(=O)Cc2ccc(NC(=O)C3=C(C)OCCS3)cc2)cc1,active: 11.7 µM
19,O=C(Nc1nnc(C2CC2)s1)c1ccc(S(=O)(=O)c2ccccc2)cc1,"inconclusive: 4.15 µM [inhibitor, partial curve, poor fit]"
20,CCN(CC(=O)Nc1ccc(NC(C)=O)cc1)C(=O)CCCc1nc2ccccc2c(=O)[nH]1,inactive
21,Nc1nc(NC(=O)/C=C/c2ccccc2)nn1-c1ccccc1,"inconclusive: 2.94 µM [inhibitor, single point]"
22,O=C(C1=NN(c2ccccc2)C2C(=O)N(c3ccc(Cl)cc3)C(=O)C12)c1ccccc1 (stereo not given),inactive
23,COc1ccc2c(c1)c(=O)c(C(=O)c1ccccc1)cn2Cc1ccc(C)cc1,"inconclusive: 18.5 µM [inhibitor, single point]"
24,CCOC(=O)C(CC)n1nc(C)n2c(cc3sccc32)c1=O (stereo not given),"inconclusive: 18.5 µM [inhibitor, single point]"

row,Compound,Potency
1,Cc1ccc(S(=O)(=O)N(CC(=O)NCCSC2CCCCC2)c2ccccc2F)cc1,active: 1.65 µM
2,CC(C)(C)NC(=O)C(Cc1ccccc1)NS(=O)(=O)c1cccc2nsnc12 (stereo not given),inactive
3,Cn1c2c(c(=O)n(C)c1=O)C(c1ccccc1Cl)CC(=O)N2 (stereo not given),inactive
4,CCOC(=O)c1c(NC(=O)COC(=O)c2nc(Cl)ccc2Cl)sc2c1CCC2,"inconclusive: 18.5 µM [inhibitor, single point]"
5,CC(Sc1nnc(-c2ccco2)n1-c1ccccc1)C(=O)NCC1CCCO1 (stereo not given),inactive
6,Cc1noc(NS(=O)(=O)c2ccc(N/C=C\C(=O)c3ccc(Br)cc3)cc2)c1C,inactive
7,Cc1ccc(-n2c(C)nc3ccccc3c2=O)c(C)c1,"inconclusive: 0.0029 µM [inhibitor, full curve, poor fit]"
8,COC(=O)CCCC1=CC2=C(c3ccccc3)C(=O)C(C)(OC(=O)C3CCCC3)C(=O)C2=CN1CC(C)C (stereo not given),"inconclusive: 11.7 µM [inhibitor, single point]"
9,CN(C(=O)CC1C(=O)NCCN1Cc1ccccc1F)C1CCOCC1 (stereo not given),inactive
10,CN(Cc1ccccc1)c1nc2c(c(=O)[nH]c(=O)n2C)n1CCCSc1ncccn1,"inconclusive: 9.28 µM [inhibitor, partial curve, poor fit]"
11,N/C(=N\OC(=O)Cc1ccccc1[N+](=O)[O-])c1ccccn1,"inconclusive: 18.5 µM [inhibitor, single point]"
12,O=C(CSc1nnnn1-c1ccc2c(c1)OCCO2)OC1CCCCC1,"inconclusive: 9.28 µM [inhibitor, partial curve]"
13,Cc1nnc(SCC(=O)N2CCN(S(=O)(=O)c3ccccc3)CC2)[nH]c1=O,"inconclusive: 1.04 µM [inhibitor, partial curve, poor fit]"
14,COC(=O)C(CCCN1C(=O)c2ccccc2C1=O)(NC(C)=O)c1nnn(C)n1 (stereo not given),"inconclusive: 2.62 µM [inhibitor, full curve]"
15,COc1ccccc1CNC(=O)COC(=O)/C=C/c1cccs1,inactive
16,O=C(N/N=C/c1ccccc1)c1ccco1,inactive
17,Cc1ccc(NC2=CC(=O)C(=O)c3ccccc32)cc1,active: 0.828 µM
18,CCN(CC)c1nc(C)c2c(c1C#N)CC(C)(C)OC2,"inconclusive: 4.15 µM [inhibitor, single point]"
19,Cc1ccc(C(=O)Nc2cccc3ccccc23)cc1,inactive
20,O=C(CSc1ccc(Br)cc1)Nc1ccccc1Oc1ccccc1,"inconclusive: 13.1 µM [inhibitor, single point]"
21,c1ccn2c(c1)nc1c2nc2ccccn21,"inconclusive: 7.38 µM [inhibitor, partial curve]"
22,NC(=O)[C@H]1CC2(CC(c3cccc(NC(=O)COc4ccc(Cl)cc4)c3)=NO2)CN1C(=O)c1ccccc1C(=O)c1ccccc1 (stereo not given in full),active: 11.7 µM
23,Cc1[nH]c2ccc(C(=O)OCC(=O)NC3(C#N)CCCCC3)cc2c1C,"inconclusive: 9.28 µM [inhibitor, single point]"
24,CN(C(=O)CN1C(=O)NC(c2ccccc2)(c2ccccc2)C1=O)C1CCS(=O)(=O)C1 (stereo not given),inactive

row,Compound,Potency
1,COc1ccc(C(=O)CCC(=O)Nc2ccc(N3CCCCC3)cc2)cc1OC,"inconclusive: 13.1 µM [inhibitor, partial curve]"
2,CS(=O)(=O)c1sc(C#N)c2c1C(=O)CC(c1ccccc1)C2 (stereo not given),"inconclusive: 9.28 µM [inhibitor, single point]"
3,O=S1(=O)N=C(N2CCc3ccccc3C2)c2ccccc21,"inconclusive: 9.28 µM [inhibitor, partial curve]"
4,O=C(NCc1ccco1)C1CCCN1C(=O)Nc1ccccc1[N+](=O)[O-] (stereo not given),"inconclusive: 9.28 µM [inhibitor, partial curve, poor fit]"
5,Cc1ccccc1-n1cc(CNC(=O)CC2C(=O)NCCN2C/C=C/c2ccccc2)cn1 (stereo not given),"inconclusive: 13.1 µM [inhibitor, partial curve, poor fit]"
6,CCOC(=O)c1c(NC(=S)NCCc2ccccc2)sc2c1CC(C(C)C)OC2 (stereo not given),"inconclusive: 18.5 µM [inhibitor, single point]"
7,CC(=O)Nc1ncc2c(n1)CC(c1ccco1)CC2=O (stereo not given),inactive
8,Cc1cccc(NC(=S)N2CCN(C(=O)c3ccco3)CC2)c1,"inconclusive: 11.7 µM [inhibitor, single point]"
9,CN(C)C1=NC[C@H](Cc2ccccc2)N1CCCC1CCCC1,"inconclusive: 16.5 µM [inhibitor, single point]"
10,O=[N+]([O-])c1ccc(N2CCN(C(=S)NCc3ccc(Cl)cc3)CC2)cc1,inactive
11,Cc1ccc(C(=O)Nc2nc3ccccc3c(=O)s2)cc1,inactive
12,CCCn1c(NC(=O)c2ccc(F)cc2)nc2ccccc21,inactive
13,CCCN(CCC)C(=O)c1c(NC(=O)CC)sc2c1CCCCC2,"inconclusive: 1.17 µM [inhibitor, full curve, poor fit]"
14,CC1Cc2ccccc2N1C(=O)CN(C)CC(=O)Nc1ccc(F)cc1 (stereo not given),"inconclusive: 9.28 µM [inhibitor, partial curve, poor fit]"
15,COc1ccc(NC(=O)CSc2nc3ccsc3c(=O)n2CCCCCC(=O)O)cc1,"inconclusive: 10.4 µM [inhibitor, single point]"
16,Cc1nn(Cc2ccc(Cl)cc2)c(C)c1NC(=O)c1cc(C(C)C)on1,inactive
17,CS(=O)(=O)NCCCc1ccccc1,"inconclusive: 0.0928 µM [inhibitor, full curve, poor fit]"
18,COc1ccc(NS(=O)(=O)c2cc(NC(=O)CC3CCCC3)ccc2N2CCOCC2)cc1,"inconclusive: 9.28 µM [inhibitor, partial curve, poor fit]"
19,CCOC(=O)c1sc(NC(=O)CCCn2nc([N+](=O)[O-])c(Cl)c2C)c(C(=O)OCC)c1C,active: 1.31 µM
20,CCC1CCCCN1CCCNC(=O)CSc1nc2nc(C)c(Cc3ccccc3)c(C)n2n1 (stereo not given),"inconclusive: 13.1 µM [inhibitor, single point]"
21,Cc1ccc(-c2csc3nc(SCC(=O)N(C)C)n(Cc4ccccc4)c(=O)c23)cc1,"inconclusive: 18.5 µM [inhibitor, single point]"
22,CCNC(=O)NC(=O)CSc1ccc(S(=O)(=O)N(C)C2CCCCC2)cn1,active: 9.28 µM

# Single entries from the entries so far:
# Entry for CCN(CC(=O)Nc1ccc(NC(C)=O)cc1)C(=O)CCCc1nc2ccccc2c(=O)[nH]1 under Potency: inactive
# Entry for Cn1c2c(c(=O)n(C)c1=O)C(c1ccccc1Cl)CC(=O)N2 (stereo not given) under Potency: inactive

# A portion from further up:
row,Compound,Potency
13,CCCN(CCC)C(=O)c1c(NC(=O)CC)sc2c1CCCCC2,"inconclusive: 1.17 µM [inhibitor, full curve, poor fit]"
14,CC1Cc2ccccc2N1C(=O)CN(C)CC(=O)Nc1ccc(F)cc1 (stereo not given),"inconclusive: 9.28 µM [inhibitor, partial curve, poor fit]"
15,COc1ccc(NC(=O)CSc2nc3ccsc3c(=O)n2CCCCCC(=O)O)cc1,"inconclusive: 10.4 µM [inhibitor, single point]"
